Data reported in the supplement of paper PMC4862054.
Small differences around the control level are noise.

How the values were obtained:
Assay in all cases: normalised response (% of control), CellTox Green; higher = less cell death (100 = DMSO, 0 = benzethonium chloride kill control)
Conditions in all cases: incubation time: 72 h
HDQ-P1 = test system: HDQ-P1
Method: (§1)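 DSRT, 72 h incubation, CellTox Green / CellTiter-Glo readout. Signal is normalised to DMSO and benzethonium chloride controls. Value is the normalised response at dose 2.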

HCC1143 = test system: HCC1143
Method: as §1

Hs578T = test system: Hs578T
Method: as §1

CAL-85-1 = test system: CAL-85-1
Method: as §1

MDA-MB-231 = test system: MDA-MB-231
Method: as §1

HCC1937 = test system: HCC1937
Method: as §1

MDA-MB-436 = test system: MDA-MB-436
Method: as §1

HCC1599 = test system: HCC1599
Method: as §1

CAL-148 = test system: CAL-148
Method: as §1

MDA-MB-468 = test system: MDA-MB-468
Method: as §1

MCF-10A = test system: MCF-10A
Method: as §1

DU-4475 = test system: DU-4475
Method: as §1

BT-549 = test system: BT-549
Method: as §1

BT-474 = test system: BT-474
Method: as §1

MFM-223 = test system: MFM-223
Method: as §1

CAL-120 = test system: CAL-120
Method: as §1

MDA-MB-453 = test system: MDA-MB-453
Method: as §1

CAL-51 = test system: CAL-51
Method: as §1

SMILES | normalised response (HDQ-P1) | normalised response (HCC1143) | normalised response (Hs578T) | normalised response (CAL-85-1) | normalised response (MDA-MB-231) | normalised response (HCC1937) | normalised response (MDA-MB-436) | normalised response (HCC1599) | normalised response (CAL-148) | normalised response (MDA-MB-468) | normalised response (MCF-10A) | normalised response (DU-4475) | normalised response (BT-549) | normalised response (BT-474) | normalised response (MFM-223) | normalised response (CAL-120) | normalised response (MDA-MB-453) | normalised response (CAL-51)
NC(=O)Nc1cc(-c2cccc(F)c2)sc1C(=O)N[C@H]1CCCNC1 [AZD7762] (1 nM) | 112% | 125% | 102% | 96.2% | 109% | 107% | 86.5% | 118% | 104% | 107% | 120% | 111% | 107% | 95.9% | 98.5% | 105% | 111% | 92.3%
CN1CCC(COc2cnc(-c3cccc(Cn4nc(-c5cccc(C#N)c5)ccc4=O)c3)nc2)CC1 (1 nM) | 112% | 90% | 110% | 95.8% | 99.4% | 98.4% | 102% | 97.7% | 105% | – | 113% | 111% | 102% | 98.6% | 100% | 105% | 107% | 97.5%
CCc1c2c(nc3ccc(OC(=O)N4CCC(N5CCCCC5)CC4)cc13)-c1cc3c(c(=O)n1C2)COC(=O)[C@]3(O)CC [Irinotecan] (10 nM) | 113% | 110% | 116% | 93.2% | – | 64.2% | 100% | 117% | 93.7% | 65% | 114% | 111% | 97% | 59.6% | 91.8% | 103% | 104% | 103%
COc1cc(CCc2cc(NC(=O)c3ccc(N4CC(C)NC(C)C4)cc3)n[nH]2)cc(OC)c1 (stereo not given) [AZD4547] (1 nM) | 112% | 83.5% | – | 97.6% | 93.8% | 87.6% | 102% | 98.2% | 101% | 102% | 104% | 93.9% | 108% | 99.6% | 86.7% | 101% | 95.2% | 87%
CC1(C)CCC(c2ccc(Cl)cc2)=C(CN2CCN(c3ccc(C(=O)NS(=O)(=O)c4ccc(N[C@H](CCN5CCOCC5)CSc5ccccc5)c(S(=O)(=O)C(F)(F)F)c4)cc3)CC2)C1 [Navitoclax] (10 nM) | 101% | 94.4% | 83.7% | 98.4% | – | 74.1% | 56% | 83.8% | 103% | 105% | 82.4% | 96.2% | 92.7% | 101% | 102% | 96.9% | 97.3% | 93.5%
O=C(Nc1ccncc1)C(=O)c1cn(Cc2ccc(Cl)cc2)c2ccccc12 [Indibulin] (10 nM) | 115% | 119% | 121% | 94.8% | 65.5% | 115% | 89.7% | 121% | 104% | – | 118% | 115% | 102% | 97.2% | 103% | 109% | 105% | 84.6%
Cn1c(Nc2ccc(C(F)(F)F)cc2)nc2cc(Oc3ccnc(-c4ncc(C(F)(F)F)[nH]4)c3)ccc21 [RAF265] (1 nM) | 122% | 119% | – | 103% | 92.6% | 103% | 112% | 110% | 106% | 96.1% | – | 111% | 105% | 97.7% | 103% | 103% | 109% | 103%
Cn1c(=O)c(F)c(Nc2ccc(I)cc2F)c2c(=O)n(C[C@@H](O)CO)cnc21 [TAK-733] (1 nM) | 86.2% | 103% | 110% | 98% | 111% | – | 94.2% | 122% | 84.7% | 115% | 101% | 117% | 81.1% | 104% | 104% | 104% | 107% | 94.8%
Nc1ncn([C@@H]2O[C@H](CO)[C@@H](O)[C@H]2O)c(=O)n1 [Azacitidine] (10 nM) | 89.6% | 88.2% | 114% | 103% | 87.1% | 97.7% | 96.4% | 94.8% | 106% | 101% | – | 96% | 107% | 84.3% | 84.5% | 98.1% | 94.9% | 102%
CC[C@H](CO)Nc1nc(NCc2ccccc2)c2ncn(C(C)C)c2n1 [Seliciclib] (10 nM) | 90.3% | 90.3% | 120% | 99.9% | 108% | 98.1% | 103% | 114% | 87.2% | 55.6% | 105% | 110% | 107% | 94.3% | 97.3% | 104% | – | 111%
Cn1cncc1[C@@](N)(c1ccc(Cl)cc1)c1ccc2c(c1)c(-c1cccc(Cl)c1)cc(=O)n2C [Tipifarnib] (10 nM) | 111% | 108% | 67.6% | 103% | 105% | 96.2% | 71.6% | 112% | 105% | – | 109% | 109% | 105% | 103% | 92.5% | 100% | 103% | 95.8%
CCCCCCCCc1ccc(CCC(N)(CO)CO)cc1 [Fingolimod] (10 nM) | 123% | 117% | 116% | 101% | 93.2% | 103% | 98.3% | 115% | – | 51.8% | 71.2% | 113% | 111% | 101% | 98.4% | 106% | 105% | 109%
COc1cc(Nc2c(C#N)cnc3cc(OCCCN4CCN(C)CC4)c(OC)cc23)c(Cl)cc1Cl [Bosutinib] (10 nM) | 51.5% | 111% | 128% | 101% | 111% | 115% | 93.7% | 102% | 86.5% | – | 85.7% | 97.2% | 106% | 104% | 104% | 93.9% | 99.4% | 95.7%
COc1cc(Nc2ncc3c(n2)-c2ccc(Cl)cc2C(c2c(F)cccc2OC)=NC3)ccc1C(=O)O [Alisertib] (10 nM) | 109% | 103% | 117% | 98.8% | 92.7% | – | 97% | 94.2% | – | 57.1% | – | 94.9% | 66.4% | 97.6% | 98.2% | 96.7% | – | 71%
Clc1ccc(C(c2ccccc2Cl)C(Cl)Cl)cc1 (stereo not given) [Mitotane] (10 nM) | 99.3% | – | 111% | 94.6% | 96.7% | 98.8% | 98.8% | 102% | 101% | 90.3% | 61.9% | 96.6% | 98.5% | 101% | 95.4% | 101% | 96% | 102%
O=[N+]([O-])c1ccc2c(c1)S(=O)(=O)C=C2 [Stattic] (50 nM) | 112% | 104% | 118% | 104% | 108% | 120% | 80.8% | 99.1% | 106% | – | 91.2% | 98.4% | 107% | 104% | 105% | 88.4% | 97.6% | 104%

Three entries out of the list, arranged by SMILES length, smallest number first.
SMILES | normalised response (HDQ-P1) | normalised response (HCC1143) | normalised response (Hs578T) | normalised response (CAL-85-1) | normalised response (MDA-MB-231) | normalised response (HCC1937) | normalised response (MDA-MB-436) | normalised response (HCC1599) | normalised response (CAL-148) | normalised response (MDA-MB-468) | normalised response (MCF-10A) | normalised response (DU-4475) | normalised response (BT-549) | normalised response (BT-474) | normalised response (MFM-223) | normalised response (CAL-120) | normalised response (MDA-MB-453) | normalised response (CAL-51)
Clc1ccc(C(c2ccccc2Cl)C(Cl)Cl)cc1 (stereo not given) [Mitotane] (10 nM) | 99.3% | – | 111% | 94.6% | 96.7% | 98.8% | 98.8% | 102% | 101% | 90.3% | 61.9% | 96.6% | 98.5% | 101% | 95.4% | 101% | 96% | 102%
O=C(Nc1ccncc1)C(=O)c1cn(Cc2ccc(Cl)cc2)c2ccccc12 [Indibulin] (10 nM) | 115% | 119% | 121% | 94.8% | 65.5% | 115% | 89.7% | 121% | 104% | – | 118% | 115% | 102% | 97.2% | 103% | 109% | 105% | 84.6%
CCc1c2c(nc3ccc(OC(=O)N4CCC(N5CCCCC5)CC4)cc13)-c1cc3c(c(=O)n1C2)COC(=O)[C@]3(O)CC [Irinotecan] (10 nM) | 113% | 110% | 116% | 93.2% | – | 64.2% | 100% | 117% | 93.7% | 65% | 114% | 111% | 97% | 59.6% | 91.8% | 103% | 104% | 103%
